Assay results: patent publication US20020025510A1, “Screening methods based on superactivated alpha V beta 3 integrin” (priority 2000, published 2002)
Results are given in words; binding and its absence hold for the method and conditions named. Some binding calls cover weakened binding; strength is not graded here.

Chains of the proteins cited; added tags and fusions are not shown. Lines headed by an entry give the natural chain unless they say otherwise; changes in a name come on top. Residues count along the entry.
UniProt P06756: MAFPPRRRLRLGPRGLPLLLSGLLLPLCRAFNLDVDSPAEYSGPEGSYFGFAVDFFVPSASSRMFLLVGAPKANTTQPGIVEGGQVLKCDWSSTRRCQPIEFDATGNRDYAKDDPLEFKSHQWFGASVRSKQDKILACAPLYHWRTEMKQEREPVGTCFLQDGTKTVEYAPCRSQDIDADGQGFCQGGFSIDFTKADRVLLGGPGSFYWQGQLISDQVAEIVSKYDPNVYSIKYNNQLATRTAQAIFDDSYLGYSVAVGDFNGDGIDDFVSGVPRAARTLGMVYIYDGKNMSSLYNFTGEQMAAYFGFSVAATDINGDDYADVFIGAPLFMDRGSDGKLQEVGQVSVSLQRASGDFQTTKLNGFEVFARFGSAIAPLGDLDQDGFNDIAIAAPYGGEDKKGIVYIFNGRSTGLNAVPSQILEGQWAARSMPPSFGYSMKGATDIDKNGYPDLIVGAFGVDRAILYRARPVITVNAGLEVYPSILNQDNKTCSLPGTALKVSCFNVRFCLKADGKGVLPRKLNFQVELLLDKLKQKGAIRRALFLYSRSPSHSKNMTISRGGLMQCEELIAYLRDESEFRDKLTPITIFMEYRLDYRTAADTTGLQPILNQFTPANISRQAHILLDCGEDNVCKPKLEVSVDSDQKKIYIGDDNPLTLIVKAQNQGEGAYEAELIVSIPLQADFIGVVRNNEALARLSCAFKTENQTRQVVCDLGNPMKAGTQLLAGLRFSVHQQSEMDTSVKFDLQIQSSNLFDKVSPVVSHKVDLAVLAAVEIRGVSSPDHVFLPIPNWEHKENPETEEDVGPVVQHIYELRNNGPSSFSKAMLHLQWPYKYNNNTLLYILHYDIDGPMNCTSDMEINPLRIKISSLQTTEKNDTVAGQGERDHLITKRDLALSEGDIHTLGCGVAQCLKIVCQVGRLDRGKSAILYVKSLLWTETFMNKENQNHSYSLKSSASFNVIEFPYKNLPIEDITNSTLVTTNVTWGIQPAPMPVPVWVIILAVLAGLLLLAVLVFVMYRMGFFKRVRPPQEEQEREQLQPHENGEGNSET
UniProt P08253, residues 445-660: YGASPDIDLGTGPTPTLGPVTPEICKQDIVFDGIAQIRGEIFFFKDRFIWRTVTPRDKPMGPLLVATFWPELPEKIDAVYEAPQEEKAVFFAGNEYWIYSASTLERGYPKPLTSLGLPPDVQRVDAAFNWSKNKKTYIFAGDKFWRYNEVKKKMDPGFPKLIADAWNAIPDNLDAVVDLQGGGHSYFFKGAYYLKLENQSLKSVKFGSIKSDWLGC

Molecular target: integrin αvβ3 with the wild type β3 subunit, on β3-MCF7 cells (human) (UniProt P06756)
Assay: adhesion of cells for 8 hours to PEX coated at 20 µg/ml

binding: binds
Substance: recombinant C-terminal domain of MMP-2 (PEX), FLAG-fusion protein (from UniProt P08253 445-660)
